Test results taken from the supplement of paper PMC12595434, “Development of retinoid nuclear receptor pathway antagonists through targeting aldehyde dehydrogenase 1A3” (iScience, 2025).
The other results are listed elsewhere or left out. Single values of this set are uncertain.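 Many melting curves are irregular; where none melted, Tm was taken as 64 °C.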

By UniProt entry, the sequences of proteins in these tests, tags left out. Where a name states a change or a piece, a line headed by the entry shows the natural chain unless it says otherwise.
UniProt Q9NP72: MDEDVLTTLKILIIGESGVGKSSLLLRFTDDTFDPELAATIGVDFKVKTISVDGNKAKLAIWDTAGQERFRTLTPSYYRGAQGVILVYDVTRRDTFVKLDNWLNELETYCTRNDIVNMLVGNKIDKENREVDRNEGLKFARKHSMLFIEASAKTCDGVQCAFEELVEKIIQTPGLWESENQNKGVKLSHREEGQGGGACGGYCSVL
UniProt Q9NV35: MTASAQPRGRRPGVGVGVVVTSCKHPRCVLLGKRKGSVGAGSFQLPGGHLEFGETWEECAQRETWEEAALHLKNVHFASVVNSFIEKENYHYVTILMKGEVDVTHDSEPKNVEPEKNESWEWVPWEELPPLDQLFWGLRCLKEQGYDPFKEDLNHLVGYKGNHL
UniProt Q9NQT4, whole entry: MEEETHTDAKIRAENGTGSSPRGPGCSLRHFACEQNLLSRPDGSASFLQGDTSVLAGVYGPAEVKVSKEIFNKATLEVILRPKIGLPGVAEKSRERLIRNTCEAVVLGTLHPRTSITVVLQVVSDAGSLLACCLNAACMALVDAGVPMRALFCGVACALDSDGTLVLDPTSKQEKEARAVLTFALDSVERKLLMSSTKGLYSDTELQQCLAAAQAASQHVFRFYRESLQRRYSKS
UniProt Q9NV96: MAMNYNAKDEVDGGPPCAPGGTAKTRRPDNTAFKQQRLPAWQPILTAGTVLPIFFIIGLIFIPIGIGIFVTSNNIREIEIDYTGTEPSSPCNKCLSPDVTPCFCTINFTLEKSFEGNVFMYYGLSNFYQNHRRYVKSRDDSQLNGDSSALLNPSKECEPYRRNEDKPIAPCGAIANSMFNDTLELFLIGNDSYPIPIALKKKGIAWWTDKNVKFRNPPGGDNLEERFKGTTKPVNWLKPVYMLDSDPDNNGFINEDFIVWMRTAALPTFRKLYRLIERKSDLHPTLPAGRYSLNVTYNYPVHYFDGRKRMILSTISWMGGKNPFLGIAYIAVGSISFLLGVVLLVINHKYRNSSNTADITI
UniProt Q9NRH2: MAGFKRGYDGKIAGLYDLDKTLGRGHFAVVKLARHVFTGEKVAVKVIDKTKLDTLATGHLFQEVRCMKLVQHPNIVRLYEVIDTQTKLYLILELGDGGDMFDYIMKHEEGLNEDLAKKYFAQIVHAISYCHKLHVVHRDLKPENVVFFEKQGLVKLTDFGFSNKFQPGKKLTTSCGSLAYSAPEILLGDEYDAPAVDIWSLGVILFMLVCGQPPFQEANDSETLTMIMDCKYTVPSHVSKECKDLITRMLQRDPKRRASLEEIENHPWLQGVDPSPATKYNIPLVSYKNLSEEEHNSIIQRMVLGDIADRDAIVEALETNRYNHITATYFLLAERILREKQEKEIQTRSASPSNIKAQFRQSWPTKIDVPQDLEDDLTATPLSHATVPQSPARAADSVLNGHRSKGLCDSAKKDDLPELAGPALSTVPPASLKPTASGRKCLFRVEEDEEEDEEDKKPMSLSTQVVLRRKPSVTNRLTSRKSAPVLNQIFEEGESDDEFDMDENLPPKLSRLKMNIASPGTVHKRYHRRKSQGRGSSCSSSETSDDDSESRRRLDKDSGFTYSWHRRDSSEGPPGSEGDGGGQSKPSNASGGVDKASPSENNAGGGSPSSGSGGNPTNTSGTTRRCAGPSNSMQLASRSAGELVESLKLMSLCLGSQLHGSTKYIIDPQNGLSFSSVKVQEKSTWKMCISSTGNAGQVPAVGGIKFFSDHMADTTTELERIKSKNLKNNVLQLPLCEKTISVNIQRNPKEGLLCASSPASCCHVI
UniProt Q9HCD6: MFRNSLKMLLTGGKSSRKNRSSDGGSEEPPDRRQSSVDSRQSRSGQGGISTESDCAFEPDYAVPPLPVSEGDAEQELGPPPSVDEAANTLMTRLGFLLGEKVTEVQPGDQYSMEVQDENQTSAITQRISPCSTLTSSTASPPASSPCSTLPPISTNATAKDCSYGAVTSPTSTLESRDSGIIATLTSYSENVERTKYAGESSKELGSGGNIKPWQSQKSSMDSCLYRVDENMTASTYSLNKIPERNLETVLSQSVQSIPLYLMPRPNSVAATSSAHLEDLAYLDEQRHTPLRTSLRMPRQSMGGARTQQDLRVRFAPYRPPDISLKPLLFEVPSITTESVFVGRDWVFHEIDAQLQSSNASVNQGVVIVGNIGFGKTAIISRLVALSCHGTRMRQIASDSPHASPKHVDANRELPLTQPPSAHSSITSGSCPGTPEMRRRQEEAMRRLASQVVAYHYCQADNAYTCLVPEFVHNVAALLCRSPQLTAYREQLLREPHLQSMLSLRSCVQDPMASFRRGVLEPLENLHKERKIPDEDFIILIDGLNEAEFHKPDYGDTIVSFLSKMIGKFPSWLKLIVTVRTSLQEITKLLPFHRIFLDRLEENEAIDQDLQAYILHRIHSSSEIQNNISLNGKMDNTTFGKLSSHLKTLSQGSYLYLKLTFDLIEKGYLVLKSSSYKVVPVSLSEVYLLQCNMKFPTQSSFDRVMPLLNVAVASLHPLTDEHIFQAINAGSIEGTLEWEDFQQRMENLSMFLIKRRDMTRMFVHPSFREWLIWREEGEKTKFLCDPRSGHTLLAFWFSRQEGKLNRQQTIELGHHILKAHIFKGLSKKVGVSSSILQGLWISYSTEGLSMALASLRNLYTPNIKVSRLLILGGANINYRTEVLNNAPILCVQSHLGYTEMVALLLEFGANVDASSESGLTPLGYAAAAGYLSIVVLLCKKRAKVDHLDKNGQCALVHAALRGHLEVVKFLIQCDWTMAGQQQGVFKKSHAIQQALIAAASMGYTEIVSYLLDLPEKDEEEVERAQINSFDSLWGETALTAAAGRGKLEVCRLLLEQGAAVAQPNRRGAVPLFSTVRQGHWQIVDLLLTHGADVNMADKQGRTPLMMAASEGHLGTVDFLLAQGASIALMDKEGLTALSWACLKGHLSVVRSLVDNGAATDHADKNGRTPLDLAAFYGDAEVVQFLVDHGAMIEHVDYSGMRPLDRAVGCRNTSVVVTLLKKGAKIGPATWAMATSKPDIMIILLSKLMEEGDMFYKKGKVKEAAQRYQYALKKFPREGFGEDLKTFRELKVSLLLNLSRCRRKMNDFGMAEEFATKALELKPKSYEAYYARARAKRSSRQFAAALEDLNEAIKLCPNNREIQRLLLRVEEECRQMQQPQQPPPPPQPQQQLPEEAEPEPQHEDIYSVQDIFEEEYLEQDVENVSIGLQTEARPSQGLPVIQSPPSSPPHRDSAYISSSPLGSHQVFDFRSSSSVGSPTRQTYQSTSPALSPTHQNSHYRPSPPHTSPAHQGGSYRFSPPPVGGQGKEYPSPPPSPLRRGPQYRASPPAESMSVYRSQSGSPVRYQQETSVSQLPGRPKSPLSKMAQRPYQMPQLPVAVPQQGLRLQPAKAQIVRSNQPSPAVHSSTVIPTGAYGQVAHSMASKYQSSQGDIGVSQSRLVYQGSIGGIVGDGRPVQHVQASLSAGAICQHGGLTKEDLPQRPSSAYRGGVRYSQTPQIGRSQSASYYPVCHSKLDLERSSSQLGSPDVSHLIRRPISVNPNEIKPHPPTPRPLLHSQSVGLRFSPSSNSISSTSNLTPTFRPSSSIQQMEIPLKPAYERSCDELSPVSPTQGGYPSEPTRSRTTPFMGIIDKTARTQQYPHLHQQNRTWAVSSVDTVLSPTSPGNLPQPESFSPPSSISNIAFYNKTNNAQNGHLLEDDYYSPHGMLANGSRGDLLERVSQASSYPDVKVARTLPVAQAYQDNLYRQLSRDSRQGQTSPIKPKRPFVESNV
UniProt Q9NQV6: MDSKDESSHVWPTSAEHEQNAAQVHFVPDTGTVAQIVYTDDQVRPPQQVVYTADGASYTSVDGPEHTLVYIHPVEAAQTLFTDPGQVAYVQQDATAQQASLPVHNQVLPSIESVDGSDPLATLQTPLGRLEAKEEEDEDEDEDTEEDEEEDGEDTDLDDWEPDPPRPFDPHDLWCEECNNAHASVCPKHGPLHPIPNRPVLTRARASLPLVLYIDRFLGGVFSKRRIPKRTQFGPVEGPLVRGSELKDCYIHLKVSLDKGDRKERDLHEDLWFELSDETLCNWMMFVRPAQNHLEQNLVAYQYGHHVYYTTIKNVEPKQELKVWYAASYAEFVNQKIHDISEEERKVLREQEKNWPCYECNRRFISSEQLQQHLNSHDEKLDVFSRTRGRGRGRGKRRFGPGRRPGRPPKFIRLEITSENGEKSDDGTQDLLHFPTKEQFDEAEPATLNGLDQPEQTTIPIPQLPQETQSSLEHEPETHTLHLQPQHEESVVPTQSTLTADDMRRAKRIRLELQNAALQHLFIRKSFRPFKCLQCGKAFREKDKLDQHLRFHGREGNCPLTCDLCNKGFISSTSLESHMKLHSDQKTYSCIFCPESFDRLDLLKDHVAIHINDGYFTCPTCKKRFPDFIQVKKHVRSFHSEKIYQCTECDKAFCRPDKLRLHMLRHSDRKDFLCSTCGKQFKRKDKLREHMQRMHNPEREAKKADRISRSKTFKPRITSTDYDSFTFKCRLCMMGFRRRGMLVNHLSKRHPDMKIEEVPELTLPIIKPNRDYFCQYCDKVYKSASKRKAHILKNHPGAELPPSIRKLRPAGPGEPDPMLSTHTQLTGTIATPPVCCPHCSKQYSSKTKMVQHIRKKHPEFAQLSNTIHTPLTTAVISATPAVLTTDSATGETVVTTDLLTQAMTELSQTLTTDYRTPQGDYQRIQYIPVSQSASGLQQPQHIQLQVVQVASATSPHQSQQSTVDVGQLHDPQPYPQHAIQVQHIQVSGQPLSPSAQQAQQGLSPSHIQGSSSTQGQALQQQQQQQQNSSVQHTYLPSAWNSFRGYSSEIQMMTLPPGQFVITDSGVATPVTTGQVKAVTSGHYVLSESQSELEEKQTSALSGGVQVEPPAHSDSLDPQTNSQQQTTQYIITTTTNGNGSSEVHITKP
UniProt Q9H9Q4: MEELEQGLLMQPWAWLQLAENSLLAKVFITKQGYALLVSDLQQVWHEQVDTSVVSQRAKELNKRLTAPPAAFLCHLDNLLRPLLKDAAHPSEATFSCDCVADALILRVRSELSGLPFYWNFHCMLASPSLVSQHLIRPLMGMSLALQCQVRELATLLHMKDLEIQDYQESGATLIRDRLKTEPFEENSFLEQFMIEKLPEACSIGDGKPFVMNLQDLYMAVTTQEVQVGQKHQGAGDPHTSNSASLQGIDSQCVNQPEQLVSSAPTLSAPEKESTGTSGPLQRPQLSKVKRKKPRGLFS
UniProt Q9NRY5: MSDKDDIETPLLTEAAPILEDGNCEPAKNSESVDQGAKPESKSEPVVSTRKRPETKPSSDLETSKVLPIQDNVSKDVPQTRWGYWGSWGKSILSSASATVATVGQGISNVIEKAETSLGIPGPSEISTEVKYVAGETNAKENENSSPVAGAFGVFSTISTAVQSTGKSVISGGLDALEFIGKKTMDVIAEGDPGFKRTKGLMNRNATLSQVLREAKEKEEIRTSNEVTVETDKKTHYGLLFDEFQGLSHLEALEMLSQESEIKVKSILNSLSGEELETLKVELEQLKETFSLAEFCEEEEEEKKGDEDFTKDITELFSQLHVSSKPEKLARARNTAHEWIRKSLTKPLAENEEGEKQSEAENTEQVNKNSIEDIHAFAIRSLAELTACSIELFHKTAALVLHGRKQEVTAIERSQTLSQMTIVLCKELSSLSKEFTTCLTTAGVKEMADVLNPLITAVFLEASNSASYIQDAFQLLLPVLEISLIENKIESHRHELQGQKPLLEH
UniProt Q9NUP7: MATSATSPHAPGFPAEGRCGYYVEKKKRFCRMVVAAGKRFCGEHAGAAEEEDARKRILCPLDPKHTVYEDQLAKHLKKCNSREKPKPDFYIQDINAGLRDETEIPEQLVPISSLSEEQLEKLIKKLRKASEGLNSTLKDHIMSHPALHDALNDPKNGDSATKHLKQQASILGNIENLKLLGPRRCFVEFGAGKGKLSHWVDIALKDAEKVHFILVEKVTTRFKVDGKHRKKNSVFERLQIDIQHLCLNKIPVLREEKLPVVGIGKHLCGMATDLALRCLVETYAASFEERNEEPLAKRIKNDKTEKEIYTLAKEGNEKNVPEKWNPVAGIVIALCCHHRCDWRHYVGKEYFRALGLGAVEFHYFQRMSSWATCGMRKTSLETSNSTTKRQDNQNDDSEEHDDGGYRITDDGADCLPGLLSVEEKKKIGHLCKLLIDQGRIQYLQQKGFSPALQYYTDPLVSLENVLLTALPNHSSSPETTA
UniProt Q9NP64: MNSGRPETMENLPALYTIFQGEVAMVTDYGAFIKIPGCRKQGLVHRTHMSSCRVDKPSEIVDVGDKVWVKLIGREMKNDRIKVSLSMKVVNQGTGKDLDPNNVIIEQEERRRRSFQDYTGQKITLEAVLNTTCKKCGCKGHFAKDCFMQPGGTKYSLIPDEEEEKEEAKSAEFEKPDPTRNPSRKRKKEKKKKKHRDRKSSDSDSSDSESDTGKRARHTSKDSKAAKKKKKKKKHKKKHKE

Compound: CCc1cnccc1C(=O)Nc1cc2c(cc1F)NC(=O)CC2
Assay: melting temperature shift (DMSO Tm minus MBE1-treated Tm) in cellular thermal proteome profiling; higher = less thermal stabilization by MBE1 (negative = stabilized by MBE1)
Conditions: A375

Target	melting temperature shift (MBE1 concentration: 100 nM) [°C]	melting temperature shift (MBE1 concentration: 1 uM) [°C]
RAB18 (UniProt Q9NP72)	-2.69	0.863
NUDT15 (UniProt Q9NV35)	-0.67	-0.14
UniProt Q9HCG7	-0.402	0.49
EXOSC5 (UniProt Q9NQT4)	-0.244	0.159
UniProt Q9H967	-1.78	0.32
TMEM30A (UniProt Q9NV96)	-0.409	0.464
UniProt Q9HCM3	-0.926	-0.305
SNRK (UniProt Q9NRH2)	0.635	-1.02
PPCS (UniProt Q9HAB8)	-0.503	-0.349
TANC2 (UniProt Q9HCD6)	-0.889	-0.428
IFT122 (UniProt Q9HBG6)	-1.32	-0.763
CBX8 (UniProt Q9HC52)	-0.0513	0.032
UniProt Q9NQV6	0.0753	-0.441
UniProt Q9H9Q4	-1.48	-0.443
SRA1 (UniProt Q9HD15)	-0.463	-0.262
PARVA (UniProt Q9NVD7)	1.59	0.879
FAM114A2 (UniProt Q9NRY5)	-0.0305	0.58
TRMT13 (UniProt Q9NUP7)	0.627	0.0488
XPNPEP3 (UniProt Q9NQH7)	-0.0977	0.153
EIF2B3 (UniProt Q9NR50)	0.452	0.488
UniProt Q9NP64	-0.352	-0.224
PLEKHA5 (UniProt Q9HAU0)	-0.833	0.461
TBC1D13 (UniProt Q9NVG8)	-0.624	0.362

An excerpt of these results, in markdown.

| Target | melting temperature shift (MBE1 concentration: 100 nM) [°C] | melting temperature shift (MBE1 concentration: 1 uM) [°C] |
| --- | --- | --- |
| IFT122 (UniProt Q9HBG6) | -1.32 | -0.763 |
| CBX8 (UniProt Q9HC52) | -0.0513 | 0.032 |
| UniProt Q9NQV6 | 0.0753 | -0.441 |
| UniProt Q9H9Q4 | -1.48 | -0.443 |
